Test results as given in publication doi:10.1101/2024.07.17.603870.
Where two headings read alike, the source gives them in different places. Results are given in words; binding and its absence hold for the method and conditions named. Some entries that bind do so weakly or less than the wild type. Tags and fused reporters may be left off the sequences shown.

Amino acid sequences for entries named in this document (tags omitted).
UniProt P49597: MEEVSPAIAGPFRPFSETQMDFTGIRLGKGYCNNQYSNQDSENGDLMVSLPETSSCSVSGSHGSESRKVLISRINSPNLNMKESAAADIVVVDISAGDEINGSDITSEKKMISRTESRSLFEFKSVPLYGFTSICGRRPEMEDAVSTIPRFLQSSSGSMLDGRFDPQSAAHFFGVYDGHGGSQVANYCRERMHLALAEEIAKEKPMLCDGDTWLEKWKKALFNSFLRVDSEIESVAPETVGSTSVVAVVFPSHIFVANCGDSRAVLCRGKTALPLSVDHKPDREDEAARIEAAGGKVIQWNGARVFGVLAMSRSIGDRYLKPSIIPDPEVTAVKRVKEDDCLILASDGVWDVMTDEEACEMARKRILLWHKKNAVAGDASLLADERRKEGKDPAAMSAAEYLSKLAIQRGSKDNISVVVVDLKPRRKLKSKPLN
UniProt O04719: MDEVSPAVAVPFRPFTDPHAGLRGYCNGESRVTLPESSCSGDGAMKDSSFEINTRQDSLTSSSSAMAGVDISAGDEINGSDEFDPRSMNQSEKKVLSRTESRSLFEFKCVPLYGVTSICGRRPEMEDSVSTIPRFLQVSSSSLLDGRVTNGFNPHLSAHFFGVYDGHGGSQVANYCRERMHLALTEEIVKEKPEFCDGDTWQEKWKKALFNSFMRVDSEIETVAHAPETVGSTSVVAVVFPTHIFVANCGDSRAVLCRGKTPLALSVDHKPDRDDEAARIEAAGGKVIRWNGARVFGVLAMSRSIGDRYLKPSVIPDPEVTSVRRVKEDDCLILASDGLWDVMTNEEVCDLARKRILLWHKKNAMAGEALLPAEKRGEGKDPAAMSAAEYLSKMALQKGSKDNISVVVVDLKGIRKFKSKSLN

T1: ABSCISIC ACID … FIVE BINDING PROTEIN 1 (AFP1), BD fusion (Arabidopsis) (UniProt Q9LQ98)
T1 sequence: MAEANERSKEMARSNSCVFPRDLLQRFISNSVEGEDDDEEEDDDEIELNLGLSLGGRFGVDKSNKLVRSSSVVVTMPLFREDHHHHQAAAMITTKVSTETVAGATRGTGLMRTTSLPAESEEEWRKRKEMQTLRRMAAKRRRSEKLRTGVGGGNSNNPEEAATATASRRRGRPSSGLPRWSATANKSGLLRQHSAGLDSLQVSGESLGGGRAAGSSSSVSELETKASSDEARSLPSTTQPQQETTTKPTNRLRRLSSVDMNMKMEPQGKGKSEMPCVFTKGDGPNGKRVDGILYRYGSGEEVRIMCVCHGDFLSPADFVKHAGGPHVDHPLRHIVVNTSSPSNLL

T2: ABSCISIC ACID … FIVE BINDING PROTEIN 2 (AFP2), BD fusion (Arabidopsis) (UniProt Q9LMX5)
T2 sequence: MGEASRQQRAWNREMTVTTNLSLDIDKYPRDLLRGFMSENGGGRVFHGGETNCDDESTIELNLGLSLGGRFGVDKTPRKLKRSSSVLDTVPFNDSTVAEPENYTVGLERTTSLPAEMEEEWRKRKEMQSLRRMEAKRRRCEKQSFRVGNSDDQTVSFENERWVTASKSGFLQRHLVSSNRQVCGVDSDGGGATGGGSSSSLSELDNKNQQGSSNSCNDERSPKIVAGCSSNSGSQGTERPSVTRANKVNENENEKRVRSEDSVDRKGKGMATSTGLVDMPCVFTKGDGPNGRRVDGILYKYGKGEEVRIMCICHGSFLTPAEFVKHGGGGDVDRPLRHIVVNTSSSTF

T3: ABSCISIC ACID … FIVE BINDING PROTEIN 3 (AFP3), BD fusion (Arabidopsis) (UniProt Q94F39)
T3 sequence: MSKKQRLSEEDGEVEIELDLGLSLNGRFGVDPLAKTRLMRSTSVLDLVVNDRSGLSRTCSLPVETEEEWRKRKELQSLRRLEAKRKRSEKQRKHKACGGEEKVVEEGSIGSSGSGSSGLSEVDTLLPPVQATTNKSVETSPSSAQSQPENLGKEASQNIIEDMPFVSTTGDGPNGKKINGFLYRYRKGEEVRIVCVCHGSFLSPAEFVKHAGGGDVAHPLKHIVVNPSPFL

T4: ABSCISIC ACID … FIVE BINDING PROTEIN 4 (AFP4), BD fusion (Arabidopsis) (UniProt Q9S7Z2)
T4 sequence: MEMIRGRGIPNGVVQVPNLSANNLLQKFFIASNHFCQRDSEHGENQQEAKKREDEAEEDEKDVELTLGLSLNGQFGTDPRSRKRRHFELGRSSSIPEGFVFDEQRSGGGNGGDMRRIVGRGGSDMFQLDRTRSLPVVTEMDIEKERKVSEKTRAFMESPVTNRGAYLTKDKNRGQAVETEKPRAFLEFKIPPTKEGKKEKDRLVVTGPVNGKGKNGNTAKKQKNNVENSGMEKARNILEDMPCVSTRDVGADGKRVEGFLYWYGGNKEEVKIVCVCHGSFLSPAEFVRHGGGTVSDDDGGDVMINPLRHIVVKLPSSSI

T5: SnRK2.6, two-hybrid fusion (Arabidopsis) (UniProt Q940H6)
T5 sequence: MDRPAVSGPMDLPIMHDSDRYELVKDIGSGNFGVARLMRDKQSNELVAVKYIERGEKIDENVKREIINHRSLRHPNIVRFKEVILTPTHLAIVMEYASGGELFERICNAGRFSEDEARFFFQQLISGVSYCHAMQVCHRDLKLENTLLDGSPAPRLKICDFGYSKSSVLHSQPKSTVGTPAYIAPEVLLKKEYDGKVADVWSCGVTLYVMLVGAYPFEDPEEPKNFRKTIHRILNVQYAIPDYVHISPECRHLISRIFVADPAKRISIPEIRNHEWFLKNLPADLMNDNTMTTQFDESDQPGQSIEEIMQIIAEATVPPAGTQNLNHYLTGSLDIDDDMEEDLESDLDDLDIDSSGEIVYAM

T6: ABSCISIC ACID … FIVE BINDING PROTEIN 1 (AFP1), BD fusion (Arabidopsis), Q9LQ98
T6 chain: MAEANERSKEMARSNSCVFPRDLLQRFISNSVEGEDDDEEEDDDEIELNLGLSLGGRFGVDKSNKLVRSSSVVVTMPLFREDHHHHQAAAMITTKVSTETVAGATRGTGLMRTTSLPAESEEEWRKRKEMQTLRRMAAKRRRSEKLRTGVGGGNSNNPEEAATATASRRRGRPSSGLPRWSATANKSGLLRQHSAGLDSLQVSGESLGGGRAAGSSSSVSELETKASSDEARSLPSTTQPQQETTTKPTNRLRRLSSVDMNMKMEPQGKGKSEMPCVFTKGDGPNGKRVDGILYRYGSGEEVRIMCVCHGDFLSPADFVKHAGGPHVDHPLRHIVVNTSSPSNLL

T7: ABSCISIC ACID … FIVE BINDING PROTEIN 2 (AFP2), BD fusion (Arabidopsis), Q9LMX5
T7 chain: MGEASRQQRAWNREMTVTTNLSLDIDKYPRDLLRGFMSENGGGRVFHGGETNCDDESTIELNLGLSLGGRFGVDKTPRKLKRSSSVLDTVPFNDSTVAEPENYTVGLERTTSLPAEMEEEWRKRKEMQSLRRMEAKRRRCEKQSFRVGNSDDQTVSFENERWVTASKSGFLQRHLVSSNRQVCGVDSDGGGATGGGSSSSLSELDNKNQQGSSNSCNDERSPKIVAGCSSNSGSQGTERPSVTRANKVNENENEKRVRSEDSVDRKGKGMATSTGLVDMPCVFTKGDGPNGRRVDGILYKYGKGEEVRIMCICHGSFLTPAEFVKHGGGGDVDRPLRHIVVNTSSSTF

T8: ABSCISIC ACID … FIVE BINDING PROTEIN 3 (AFP3), BD fusion (Arabidopsis), Q94F39
T8 chain: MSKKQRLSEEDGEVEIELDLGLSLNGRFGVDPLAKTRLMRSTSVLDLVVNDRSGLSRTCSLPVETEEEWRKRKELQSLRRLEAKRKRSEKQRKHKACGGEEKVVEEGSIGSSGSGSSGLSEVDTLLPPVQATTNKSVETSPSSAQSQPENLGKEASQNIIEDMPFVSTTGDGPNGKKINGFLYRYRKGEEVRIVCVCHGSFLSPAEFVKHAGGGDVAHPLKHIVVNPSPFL

T9: ABSCISIC ACID … FIVE BINDING PROTEIN 4 (AFP4), BD fusion (Arabidopsis), Q9S7Z2
T9 chain: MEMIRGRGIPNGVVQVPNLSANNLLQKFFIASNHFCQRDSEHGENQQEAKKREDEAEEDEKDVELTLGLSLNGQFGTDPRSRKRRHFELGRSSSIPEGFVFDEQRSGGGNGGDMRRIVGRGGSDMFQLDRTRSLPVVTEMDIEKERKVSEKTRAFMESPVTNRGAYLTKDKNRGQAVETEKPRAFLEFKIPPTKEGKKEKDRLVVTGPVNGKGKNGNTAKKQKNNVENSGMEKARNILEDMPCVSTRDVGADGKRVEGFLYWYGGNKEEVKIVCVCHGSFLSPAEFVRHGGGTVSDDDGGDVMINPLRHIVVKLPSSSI


Experiments:
Test in all cases: two-hybrid
[1] = biological target: T1, ABSCISIC ACID … FIVE BINDING PROTEIN 1 (AFP1), BD fusion (Arabidopsis)
[2] = biological target: T2, ABSCISIC ACID … FIVE BINDING PROTEIN 2 (AFP2), BD fusion (Arabidopsis)
[3] = biological target: T3, ABSCISIC ACID … FIVE BINDING PROTEIN 3 (AFP3), BD fusion (Arabidopsis)
[4] = biological target: T4, ABSCISIC ACID … FIVE BINDING PROTEIN 4 (AFP4), BD fusion (Arabidopsis)
[5] = biological target: T5, SnRK2.6, two-hybrid fusion (Arabidopsis)
[6] = biological target: T1, ABSCISIC ACID … FIVE BINDING PROTEIN 1 (AFP1), BD fusion (Arabidopsis); remark: listed apart in the source
[7] = biological target: T2, ABSCISIC ACID … FIVE BINDING PROTEIN 2 (AFP2), BD fusion (Arabidopsis); remark: listed apart in the source
[8] = biological target: T3, ABSCISIC ACID … FIVE BINDING PROTEIN 3 (AFP3), BD fusion (Arabidopsis); remark: listed apart in the source
[9] = biological target: T4, ABSCISIC ACID … FIVE BINDING PROTEIN 4 (AFP4), BD fusion (Arabidopsis); remark: listed apart in the source
[10] = biological target: T6, ABSCISIC ACID … FIVE BINDING PROTEIN 1 …; settings: remark: other sources report otherwise
[11] = biological target: T7, ABSCISIC ACID … FIVE BINDING PROTEIN 2 …; settings: remark: other sources report otherwise
[12] = biological target: T8, ABSCISIC ACID … FIVE BINDING PROTEIN 3 …; settings: remark: other sources report otherwise
[13] = biological target: T9, ABSCISIC ACID … FIVE BINDING PROTEIN 4 …; settings: remark: other sources report otherwise

Molecule	binding [6]	binding [7]	binding [8]	binding [9]	other results
ABI1, two-hybrid fusion (from UniProt P49597 1-434) (enzyme)	–	–	–	–	binding [1]: no binding; binding [2]: no binding; binding [3]: no binding; binding [4]: no binding
ABI2, two-hybrid fusion (from UniProt O04719 1-423) (enzyme)	–	–	–	–	binding [1]: no binding; binding [2]: no binding; binding [3]: no binding; binding [4]: no binding; binding [5]: binds
ABA … …ON 1 (AHG1), two-hybrid fusion (enzyme, UniProt Q9FLI3 1-416) MTEIYRTISTGRGDDVSPTKCRERRRRRIEMRRQAAVFGEPSSSRNRDRTDMEVYSSFDVPLRKQARRSEIGGLPADIGGFLAPPAASSCQKSEAPVWKGEETEDEPLYGIVSVMGRSRKMEDSVTVKPNLCKPEVNRQRPVHFFAVYDGHGGSQVSTLCSTTMHTFVKEELEQNLEEEEEGSENDVVERKWRGVMKRSFKRMDEMATSTCVCGTSVPLCNCDPREAAISGSTAVTAVLTHDHIIVANTGDSRAVLCRNGMAIPLSNDHKPDRPDERARIEAAGGRVLVVDGARVEGILATSRAIGDRYLKPMVAWEPEVTFMRRESGDECLVLASDGLWDVLSSQLACDIARFCLREETPSSLDLNRMAQEDDNDGEQNPSRSVLAATLLTRLALGRQSSDNISVVVIDLKNSSQ	binds	binds	binds	binds	–
ABA … …ON 3 (AHG3), two-hybrid fusion, P49598 1-399 (enzyme) MAGICCGVVGETEPAAPVDSTSRASLRRRLDLLPSIKIVADSAVAPPLENCRKRQKRETVVLSTLPGNLDLDSNVRSENKKARSAVTNSNSVTEAESFFSDVPKIGTTSVCGRRRDMEDAVSIHPSFLQRNSENHHFYGVFDGHGCSHVAEKCRERLHDIVKKEVEVMASDEWTETMVKSFQKMDKEVSQRECNLVVNGATRSMKNSCRCELQSPQCDAVGSTAVVSVVTPEKIIVSNCGDSRAVLCRNGVAIPLSVDHKPDRPDELIRIQQAGGRVIYWDGARVLGVLAMSRAIGDNYLKPYVIPDPEVTVTDRTDEDECLILASDGLWDVVPNETACGVARMCLRGAGAGDDSDAAHNACSDAALLLTKLALARQSSDNVSVVVVDLRKRRNNQASS	–	–	–	–	binding [10]: no binding; binding [11]: no binding; binding [12]: no binding; binding [13]: no binding

Second part, led by results:

binding [6]	binding [7]	binding [8]	binding [9]	Molecule	other results
no binding	no binding	no binding	no binding	HAI1, two-hybrid fusion (enzyme, UniProt Q9FIF5 1-413) MAEICYENETMMIETTATVVKKATTTTRRRERSSSQAARRRRMEIRRFKFVSGEQEPVFVDGDLQRRRRRESTVAASTSTVFYETAKEVVVLCESLSSTVVALPDPEAYPKYGVASVCGRRREMEDAVAVHPFFSRHQTEYSSTGFHYCGVYDGHGCSHVAMKCRERLHELVREEFEADADWEKSMARSFTRMDMEVVALNADGAAKCRCELQRPDCDAVGSTAVVSVLTPEKIIVANCGDSRAVLCRNGKAIALSSDHKPDRPDELDRIQAAGGRVIYWDGPRVLGVLAMSRAIGDNYLKPYVISRPEVTVTDRANGDDFLILASDGLWDVVSNETACSVVRMCLRGKVNGQVSSSPEREMTGVGAGNVVVGGGDLPDKACEEASLLLTRLALARQSSDNVSVVVVDLRRDT	–
no binding	no binding	no binding	no binding	HAB2, two-hybrid fusion (enzyme, UniProt Q9LNP9 1-511) MEEISPAVALTLGLANTMCDSGISSTFDISELENVTDAADMLCNQKRQRYSNGVVDCIMGSVSEEKTLSEVRSLSSDFSVTVQESEEDEPLVSDATIISEGLIVVDARSEISLPDTVETDNGRVLATAIILNETTIEQVPTAEVLIASLNHDVNMEVATSEVVIRLPEENPNVARGSRSVYELECIPLWGTISICGGRSEMEDAVRALPHFLKIPIKMLMGDHEGMSPSLPYLTSHFFGVYDGHGGAQVADYCHDRIHSALAEEIERIKEELCRRNTGEGRQVQWEKVFVDCYLKVDDEVKGKINRPVVGSSDRMVLEAVSPETVGSTAVVALVCSSHIIVSNCGDSRAVLLRGKDSMPLSVDHKPDREDEYARIEKAGGKVIQWQGARVSGVLAMSRSIGDQYLEPFVIPDPEVTFMPRAREDECLILASDGLWDVMSNQEACDFARRRILAWHKKNGALPLAERGVGEDQACQAAAEYLSKLAIQMGSKDNISIIVIDLKAQRKFKTRS	–
no binding	no binding	no binding	no binding	HAI2, two-hybrid fusion (enzyme, UniProt Q9LNW3 1-442) MADICYEDETSACESRPLWSSRKWRIGVQRFRMSPSEMNPTASTTEEEDKSEGIYNKRNKQEEYDFMNCASSSPSQSSPEEESVSLEDSDVSISDGNSSVNDVAVIPSKKTVKETDLRPRYGVASVCGRRRDMEDAVALHPSFVRKQTEFSRTRWHYFGVYDGHGCSHVAARCKERLHELVQEEALSDKKEEWKKMMERSFTRMDKEVVRWGETVMSANCRCELQTPDCDAVGSTAVVSVITPEKIIVANCGDSRAVLCRNGKAVPLSTDHKPDRPDELDRIQEAGGRVIYWDGARVLGVLAMSRAIGDNYLKPYVTSEPEVTVTDRTEEDEFLILATDGLWDVVTNEAACTMVRMCLNRKSGRGRRRGETQTPGRRSEEEGKEEEEKVVGSRKNGKRGEITDKACTEASVLLTKLALAKHSSDNVSVVVIDLRRRRKRHVA	–
